Experimental data reported in the supplement of paper PMC12067093, “Discovery and optimisation of a covalent ligand for TRIM25 and its application to targeted protein ubiquitination” (Chemical Science, 2025).
This is one part of the list.

compound: CC1Cc2ccccc2N1C(=O)C1CCCN(C1)C(=O)CCl (mixture of isomers) [TRIM25 ligand 11 (diastereomer mixture)]; assay: probe-labelled cysteine peptide fold change vs DMSO (competition) (log2 fold change); higher = less target engagement (more negative = stronger competition); conditions: 10 µM; THP-1; incubation time: 4 h
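Note: competitive chemoproteomic profiling in live THP-1 cells with an iodoacetamide desthiobiotin (IA-DTB) probe, comparing probe-labelled peptide intensities in compound-treated cells against DMSO-treated controls.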

Target | probe-labelled cysteine peptide fold change
PPIP5K2_O43314_298_VCLAFK (UniProt O43314) | -0.12
PPP1R9B_Q96SB3_270_CPAGQQPPQHR (UniProt Q96SB3) | -0.0542
PPP3CB_P16298_162_GNHECR (UniProt P16298) | 0.073
PPP1R10_Q96QC0_463_VPWVCPR (UniProt Q96QC0) | -0.029
PPIG_Q13427_549_ECDITK (UniProt Q13427) | 0.0567
PPP4R1_Q8TF05_117_AELMEQVPHIALFCQENRPSIPYAFSK (UniProt Q8TF05) | -0.016
PPP4R1_Q8TF05_84_EVCDDERDCIAVLER (UniProt Q8TF05) | 0.0784
PREP_P48147_343_DVLEWIACVR (UniProt P48147) | 0.0404
PREB_Q9HCU5_128_KCGAETQHEGLELR (UniProt Q9HCU5) | -0.0571
PRDX1_Q06830_71+83_LNCQVIGASVDSHFCHLAWVNTPK (UniProt Q06830) | 0.226
PREPL_Q4J6C6_184_IRTEDSEASTCVIIK (UniProt Q4J6C6) | 0.00491
PREB_Q9HCU5_378_CQLHLLPSRR (UniProt Q9HCU5) | 0.105
PRDX1_Q06830_71_KLNCQVIGASVDSHFCHLAWVNTPK (UniProt Q06830) | 0.142
PPP1R12C_Q9BZL4_109_AVLDSTNADGISALHQACIDENLEVVR (UniProt Q9BZL4) | -0.168
PRAME_P78395_188_EGACDELFSYLIEK (UniProt P78395) | -0.14
PPP6R3_Q5H9R7_37_ELMDEEDVLQECK (UniProt Q5H9R7) | -0.0583
PPP1R21_Q6ZMI0_516_AASGFISPLSAECMLQYK (UniProt Q6ZMI0) | 0.107
PRDX2_P32119_172_LVQAFQYTDEHGEVCPAGWKPGSDTIK (UniProt P32119) | 0.192
PPP6C_O00743_129_QITQVYGFYDECQTK (UniProt O00743) | 0.415
PPP4C_P60510_266_CGNVAAILELDEHLQK (UniProt P60510) | 0.104
PPP2R1A_P30153_377_DNTIEHLLPLFLAQLKDECPEVR (UniProt P30153) | -0.282
PPP1CB_P62140_201_IMRPTDVPDTGLLCDLLWSDPDKDVQGWGENDR (UniProt P62140) | 0.138
PPM1A_P35813_72_YCCEHLLDHITNNQDFK (UniProt P35813) | 0.0578
PPP4R2_Q9NY27_296_QHCTEEDEEEDEEEEEESFMTSR (UniProt Q9NY27) | -0.208

Look-ups from above.
Entry for PPP1R9B_Q96SB3_270_CPAGQQPPQHR (UniProt Q96SB3) under probe-labelled cysteine peptide fold change: -0.0542
Entry for PPP1R12C_Q9BZL4_109_AVLDSTNADGISALHQACIDENLEVVR (UniProt Q9BZL4) under probe-labelled cysteine peptide fold change: -0.168
